Test results as given in PubChem BioAssay AID1347423 (Functional Genomics Laboratory (NCATS/FGL), 2020).
Hit rate of the full screen: of about 52,000 sequences, about 210 (0.4%) were called active.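 Rule for the calls: active = gene whose silencing raises cell survival under the drug, median off-target-corrected z-score across its silencing RNAs 2 or more; inactive = the rest.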 Some of the results follow.

assay: Resistance to Poly (ADP-Ribose) Polymerase inhibitor: Gene Identification via Genome-wide siRNA Screen; settings: mouse BRCA2 R2336H ES cells, olaparib, CellTiter-Glo viability; hits give high values
How it was run: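 Genome-wide siRNA screen (3 siRNAs/gene, 20 nM) in mouse ES cells carrying hypomorphic BRCA2 R2336H; olaparib 500 nM added 48 h post-transfection, CellTiter-Glo viability 72 h later. Normalized to plate-median negative control; MAD z-scores, gene median, seed-adjusted.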

**Q.** With GCAAAAAAUCACUUCGAGUTT against Mgat4a as the sequence, how does the z-score read?
**A.** inactive: -0.405

**Q.** With GGCUCGUUCCAACCCUUUATT against Dbx1 as the sequence, how does the z-score read?
**A.** inactive: -0.155

**Q.** Which z-score does the source give for CGAAUUCAUACCAAGAAAGTT against Myo3a here?
**A.** inactive: 0.632

**Q.** For CCUCCUGUCGGACAGUGAATT against Gm93, which z-score is on record?
**A.** inactive: -1.77

**Q.** With GCCUCGAUGGACUCAACAUTT against BC011210 as the sequence, how does the z-score read?
**A.** inactive: -0.425

**Q.** For GGAAGAUAUUGGUAAAAACTT against Ube1y1, which z-score is on record?
**A.** inactive: 0.333

**Q.** Which z-score does the source give for “GGACUGAGAAAACUCCAAATT against A630042L21Rik” here?
**A.** inactive: -1.61

**Q.** For GGCCAUUGACUUUGUGGAUTT against BC023835, which z-score is on record?
**A.** inactive: 0.665

**Q.** Which z-score does the source give for “GGGCCAUGUAUCUUGACAUTT against 1700011H14Rik” here?
**A.** inactive: -0.976

**Q.** For GGUCAUCGAUAAGAAAAGATT against Hunk, which z-score is on record?
**A.** inactive: -1.64

**Q.** For CUUAGCUUACAAACAAGGCTT against MGC5739, which z-score is on record?
**A.** inactive: 3.4

**Q.** With GCCAAAACUCUGUUAGAUATT against Anapc7 as the sequence, how does the z-score read?
**A.** inactive: 1.62

**Q.** For GCAUUCGCUACAAUUCCAUTT against Slc31a1, which z-score is on record?
**A.** inactive: -0.475

**Q.** With GGAGAUCCGAUGUUAUGUGTT against Atp9a as the sequence, how does the z-score read?
**A.** inactive: -0.699

**Q.** For CCUCAAAUGGCCACACACUTT against Kcnj11, which z-score is on record?
**A.** inactive: -1.53

**Q.** With GGACCCUACAUUCUGUAUATT against Olfr474 as the sequence, how does the z-score read?
**A.** inactive: -0.118

**Q.** Which z-score does the source give for CCUUAUUCAACCAUACGGCTT against Fut10 here?
**A.** inactive: -0.165

**Q.** With GCCAAAUUGACUGUAAAUGTT against Lrig2 as the sequence, how does the z-score read?
**A.** inactive: 0.225

**Q.** With GGGAGAGGGAACAUUCAAGTT against BC040774 as the sequence, how does the z-score read?
**A.** inactive: 0.4

**Q.** With GGUUGUUCCCUUGAAAGGCTT against Gamt as the sequence, how does the z-score read?
**A.** inactive: -1.02

**Q.** Which z-score does the source give for “GGAGAGUGCAAGGAAGAAGTT against 2410004L22Rik” here?
**A.** inactive: -1.14

**Q.** For GGAGCUAGAAAAGACAUACTT against Lmna, which z-score is on record?
**A.** inactive: 0.332

**Q.** For GGAGAUCUGCUCUAAUUAUTT against Eif1ay, which z-score is on record?
**A.** inactive: -1

**Q.** With GGGAGCAUCAAACAACAAUTT against Tbr1 as the sequence, how does the z-score read?
**A.** inactive: 1.41

**Q.** With GGAGGCCAAGCAGAAAGAGTT against Kars as the sequence, how does the z-score read?
**A.** inactive: 0.607

**Q.** For GGAUUGUGAGGUUGUAAUGTT against Hnrpu, which z-score is on record?
**A.** inactive: -2.03

**Q.** With “GCCAAAAGGAGGACAUACCTT against D830007F02Rik” as the sequence, how does the z-score read?
**A.** inactive: 1.13

**Q.** For “GGUGGACCUGCACUUUACCTT against A830008O07”, which z-score is on record?
**A.** inactive: -0.411

**Q.** Which z-score does the source give for GGUUAUUAAGUAGCUUUUCTT against Dtx1 here?
**A.** inactive: 0.409

**Q.** With CCAGAGAACCAAGUUAUUUTT against Olfr344 as the sequence, how does the z-score read?
**A.** inactive: -0.458

**Q.** For CCUUGCUAGUAGAAUAAACTT against Park7, which z-score is on record?
**A.** inactive: 0.601

**Q.** For GGCAACGAUGAAAACUACUTT against Runx1, which z-score is on record?
**A.** inactive: 0.439

**Q.** With GGAGAUGCUCUGCUGGUGUTT against Cyb561 as the sequence, how does the z-score read?
**A.** inactive: 1.67

**Q.** For GGCGACACAGCAAAUGAAATT against Serpinb5, which z-score is on record?
**A.** inactive: 0.667

**Q.** With “GGGUUUCAAUAUGAUCAAATT against 4932415G16Rik” as the sequence, how does the z-score read?
**A.** inactive: -0.433

**Q.** With GGCAGAACUACAUUGAAAATT against Dusp11 as the sequence, how does the z-score read?
**A.** inactive: 1.8

**Q.** For GGAAAAUGCUGACUGAUAUTT against Cts8, which z-score is on record?
**A.** inactive: -0.971

**Q.** For “GGUGAAGAUAGUAAUACGGTT against 9130022K13Rik”, which z-score is on record?
**A.** inactive: 0.164

**Q.** With GGCUAAGUUCGCUUACAAATT against Tmpit as the sequence, how does the z-score read?
**A.** inactive: -0.222

**Q.** For GCAUGAUAACAGCACUAGGTT against LOC381286, which z-score is on record?
**A.** inactive: 0.589

**Q.** Which z-score does the source give for GGCCGACAAUUUGUCAGUUTT against Uaca here?
**A.** inactive: 0.232

**Q.** Which z-score does the source give for “CGAAGUCCAAAGCCCAGUATT against 4931406O17Rik” here?
**A.** inactive: 1.46

**Q.** For GGAUCUGCUCACAUAGUCATT against Slc2a2, which z-score is on record?
**A.** inactive: 0.972

**Q.** Which z-score does the source give for GGAACUUGUUUCAUAUCGUTT against Scfd1 here?
**A.** inactive: 0.363

**Q.** With GUGAGUUCUAGAACAGCUATT against BC043934 as the sequence, how does the z-score read?
**A.** inactive: 0.854

**Q.** For “GCCAAAGUAGUUGAACCUUTT against 6720467C03Rik”, which z-score is on record?
**A.** inactive: 0.27

**Q.** For GGGCACUCAAGUGUAUGUCTT against Hpxn, which z-score is on record?
**A.** inactive: 0.0938

**Q.** With “GGUGGACCAAAAAGAACUUTT against 4933417A18Rik” as the sequence, how does the z-score read?
**A.** inactive: -0.944

**Q.** With GGCCUUUGUACAGGACCCATT against Tor2a as the sequence, how does the z-score read?
**A.** inactive: -0.249

**Q.** With GGAAGGAGAAAGAGUAUGATT against Mnt as the sequence, how does the z-score read?
**A.** inactive: 0.429

**Q.** Which z-score does the source give for GGAUGUGAGCACAUCUUCUTT against Bard1 here?
**A.** inactive: -1.87

**Q.** For GGACAGGCUUACUUCCUGATT against BC052055, which z-score is on record?
**A.** inactive: -0.189
